These are yes or no findings as the source states them, for the method shown. In cells and extracts the contact can be indirect. A yes stands for co-enrichment or nearness to the bait. Other partners may have been found. No binding means not detected with the bait.

Protein sequences, listed by entry. Tags and fused reporters are not part of them.
UniProt P01958: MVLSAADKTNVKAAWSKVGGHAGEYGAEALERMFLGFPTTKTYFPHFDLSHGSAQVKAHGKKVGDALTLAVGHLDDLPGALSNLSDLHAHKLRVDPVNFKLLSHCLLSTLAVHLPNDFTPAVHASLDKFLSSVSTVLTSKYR
UniProt P02062: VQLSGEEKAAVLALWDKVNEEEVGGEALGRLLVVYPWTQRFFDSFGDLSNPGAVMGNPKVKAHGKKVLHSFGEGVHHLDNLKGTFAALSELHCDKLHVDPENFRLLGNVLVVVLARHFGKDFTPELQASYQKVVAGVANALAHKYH

The target in experiment [1] is T1, Theileria equi claudin-like apicomplexan microneme protein (CLAMP) (Theileria equi (Florida strain)) (UniProt L0B1Y1).
T1 sequence: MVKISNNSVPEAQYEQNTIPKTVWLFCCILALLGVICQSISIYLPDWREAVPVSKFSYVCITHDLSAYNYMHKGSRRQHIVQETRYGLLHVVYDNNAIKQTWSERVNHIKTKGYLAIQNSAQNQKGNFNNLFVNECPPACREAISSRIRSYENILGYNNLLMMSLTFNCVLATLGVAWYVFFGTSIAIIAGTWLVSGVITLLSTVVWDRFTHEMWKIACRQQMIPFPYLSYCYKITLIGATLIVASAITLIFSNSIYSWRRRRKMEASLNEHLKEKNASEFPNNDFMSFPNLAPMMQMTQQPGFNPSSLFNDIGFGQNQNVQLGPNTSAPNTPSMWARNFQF
In words: cross-linking + affinity purification with mass spectrometry; T. equi-infected equine erythrocytes (~11% PPE) in 1X PBS cross-linked with 2 mM DSP on ice for 2 h, quenched with 20 mM Tris; co-immunoprecipitation (Pierce Co-Immunoprecipitation kit, AminoLink resin; agarose resin as negative control), SDS-PAGE bands cut out, nano LC-MS/MS.

Experiment [2] concerns the target T1, Theileria equi claudin-like apicomplexan microneme protein (CLAMP) (Theileria equi (Florida strain)). The experiment is described as follows: cross-linking + affinity purification with mass spectrometry; uninfected equine erythrocytes incubated with 5 x 10^8 T. equi merozoites for 1 h at 4 °C in 1X PBS, cross-linked with 2 mM DTSSP on ice for 2 h, quenched with 20 mM Tris; co-immunoprecipitation (Pierce Co-Immunoprecipitation kit, AminoLink resin; agarose resin as negative control), SDS-PAGE bands cut out, nano LC-MS/MS.

With Spectrin alpha, erythrocytic 1, the binding result in experiment [1] and in experiment [2] was “binds” in each case.

Regarding Spectrin beta chain, the binding entry in experiment [1] and in experiment [2] was “binds” each time.

Tropomyosin 3: in experiment [1], the binding result was “binds”.

Regarding “equine α-hemoglobin subunit (from UniProt P01958 1-142)”, the binding result in experiment [1] and in experiment [2] was “no binding” throughout.

In the case of “equine β-hemoglobin subunit (from UniProt P02062 1-146)”, the binding result in experiment [1] and in experiment [2] was “no binding” each time.

B1: Anion-exchange protein (protein, UniProt Q2Z1P9 1-934)
chain: MDDSQENPEEIEVIVEEDYEGPGIITSPPEAIMEEDYEGPGVSMSQPEEPVAHPTERTAADHHTITHPGTGEVYVELQELVMDGKNRELQWMEAARWVRLEENLGEDGAWGRPHLSYLNFWSLLDLQRAFAKGSVLLDLSETSLAGVAEKLLDRFIYDGLIRPQYREDLLWVLLLKHSHARDLKELDGVKPTVLTPSGGTLQPLLPEHPSLETQLFCAQGEGDTEESSPSGILEKISPDSEAALVLVGRISFLEKPVLGFVRLREAVELEATVEPSVPVRFLLVLLGPEAPHTDYTQLGRAAATLMSERVFLNEANTAQSKEELVRSLEGFLDCSLVLPPLDAPSKQALLSLVPVQRELLRRRYLPSPAKPDPSFYKSLDLGRGPGVPSGPEDPLQRTGYLFGGLVHDIKRRYPHYLSDITDALSPSVLAVVFFIYFAALSPAITFGGLLGEKTYNQIGVSELLLSTALQGIIFCLLGAQPLLVIGFSGPLLVFEEAFFSFCDRQGLEYIVGRVWIGFWLILLVVLVVAFEGSVLVRFISRYTQEIFSFLISLIFIYETFSKLVKIFQEHPLQRNYDQNVITEPKPQAPMPNTALLSLVLMAGTFSIAMMLRKFKNSTYLPGKLRRIIGDFGIPISALIMIMVDFLIQDTYTQKLSVPEGFSVSNTSFRGWLIHPLGLYTRFPTWMMFASVLPAMLVFILIFLESQITTLIISKPERRMVKGSGFHLDLLLIMGMGGLAPLFGMPWLSATTVRTITHANALTDVAKASTPGAEAQIQVREQRISGLLVALLLGLSILMGPVLRRIPLAVLFGIFLYMGVTSLSGIQFFDRILLLFKPQQYHPDVPYVTRVKTWRMHLFTITQIICVVVLWVVKTFPDSSLALPFVLILTVPLRHFLLPMIFRNLELQCLDADDAKAIFDEEEGQDEYDEATMAV
In the case of B1, the binding result in experiment [1] is reported as “binds”.

For the origin of these results see paper PMC8085155.
